The results in this text go back to patent publication US20210346401A1, “REGULATOR OF TGR5 SIGNALING AS IMMUNOMODULATORY AGENT” (YICHANG HUMANWELL PHARMACEUTICAL CO., LTD, priority 2018, published 2021).

Protein sequences, listed by entry. Tags and fused reporters are not part of them.
UniProt P43250: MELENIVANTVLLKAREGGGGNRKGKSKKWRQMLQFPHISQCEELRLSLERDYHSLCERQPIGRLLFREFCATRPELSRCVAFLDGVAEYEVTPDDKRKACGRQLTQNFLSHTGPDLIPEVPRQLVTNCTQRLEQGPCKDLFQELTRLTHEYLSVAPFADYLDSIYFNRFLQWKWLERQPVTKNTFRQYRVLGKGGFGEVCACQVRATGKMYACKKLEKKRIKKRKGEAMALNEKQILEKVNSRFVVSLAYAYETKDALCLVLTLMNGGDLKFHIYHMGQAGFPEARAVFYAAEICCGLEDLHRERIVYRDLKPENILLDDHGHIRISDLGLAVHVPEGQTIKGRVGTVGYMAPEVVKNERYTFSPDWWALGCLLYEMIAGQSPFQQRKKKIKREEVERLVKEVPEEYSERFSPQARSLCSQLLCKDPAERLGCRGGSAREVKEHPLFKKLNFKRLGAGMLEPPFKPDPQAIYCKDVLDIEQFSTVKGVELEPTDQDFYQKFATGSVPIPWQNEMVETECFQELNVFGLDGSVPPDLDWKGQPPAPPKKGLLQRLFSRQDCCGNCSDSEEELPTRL
UniProt P49407: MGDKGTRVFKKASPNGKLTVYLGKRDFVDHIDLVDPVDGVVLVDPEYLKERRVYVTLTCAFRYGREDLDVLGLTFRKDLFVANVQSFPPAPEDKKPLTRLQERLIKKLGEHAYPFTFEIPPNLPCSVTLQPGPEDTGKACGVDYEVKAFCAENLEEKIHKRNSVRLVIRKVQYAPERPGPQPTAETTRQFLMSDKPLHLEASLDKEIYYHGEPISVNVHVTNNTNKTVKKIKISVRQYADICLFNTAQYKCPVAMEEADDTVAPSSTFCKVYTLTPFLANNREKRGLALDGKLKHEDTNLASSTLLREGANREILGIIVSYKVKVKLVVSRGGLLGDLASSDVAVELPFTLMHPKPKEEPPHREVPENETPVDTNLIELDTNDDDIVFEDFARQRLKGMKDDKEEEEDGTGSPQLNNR

These are yes or no findings as the source states them, for the method shown. In cells and extracts the contact can be indirect. Some results given as binding are weak or reduced against the parent protein; the word gives no strength.

Test [1] deals with T1, TGR5 (endogenous, HEK293 cells) (UniProt Q8TDU6).
T1 sequence (looked up): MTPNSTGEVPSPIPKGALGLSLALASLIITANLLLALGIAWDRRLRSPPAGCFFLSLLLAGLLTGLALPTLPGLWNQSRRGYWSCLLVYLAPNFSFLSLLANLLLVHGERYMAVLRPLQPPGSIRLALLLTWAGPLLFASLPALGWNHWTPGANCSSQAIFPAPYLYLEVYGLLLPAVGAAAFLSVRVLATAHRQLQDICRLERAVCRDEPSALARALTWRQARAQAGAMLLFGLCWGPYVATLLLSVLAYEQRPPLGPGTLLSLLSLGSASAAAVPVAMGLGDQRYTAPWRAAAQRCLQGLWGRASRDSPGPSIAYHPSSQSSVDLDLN
Briefly: endogenous coimmunoprecipitation with TGR5 antibodies, SeV-infected HEK293 cells, immunoblot.

The target of test [2] is T1, TGR5 (endogenous, HEK293 cells). The test is described as follows: endogenous coimmunoprecipitation after viral infection.

As to “GRK6 (endogenous, HEK293 cells) (from UniProt P43250 1-576) (enzyme)”, the binding entry in test [1] and in test [2] was “binds” each time.

For “β-arrestin1 (endogenous, HEK293 cells) (from UniProt P49407 1-418)”, the binding entry in test [1] and in test [2] was “binds” in each case.
